By UniProt entry, the sequences of proteins in these tests, tags left out. Where a name states a change or a piece, a line headed by the entry shows the natural chain unless it says otherwise.
UniProt P40306: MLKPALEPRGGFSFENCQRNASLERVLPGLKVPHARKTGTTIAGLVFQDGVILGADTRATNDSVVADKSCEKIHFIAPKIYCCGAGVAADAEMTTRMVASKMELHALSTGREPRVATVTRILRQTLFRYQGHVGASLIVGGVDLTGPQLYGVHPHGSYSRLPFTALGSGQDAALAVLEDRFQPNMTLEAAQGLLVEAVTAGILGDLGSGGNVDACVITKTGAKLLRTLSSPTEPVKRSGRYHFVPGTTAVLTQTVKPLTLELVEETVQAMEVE

In article PMC12131556:

Biological target: PSMB10 (human (endogenous in THP-1)) (UniProt P40306)
Test: co-IP; endogenous proteins from THP-1 lysate (25 mM Tris-HCl, 150 mM NaCl, 1 mM EDTA, 1% NP-40), precipitated with the indicated antibody and Protein A/G Plus-agarose at 4 °C, western blot; WT THP-1 cells, for RPS6 or RPL6 with MDM2 also shPSMB10-transfected THP-1 cells

B1: SLC22A16 (protein, UniProt Q86VW1 1-577)
chain: MGSRHFEGIYDHVGHFGRFQRVLYFICAFQNISCGIHYLASVFMGVTPHHVCRPPGNVSQVVFHNHSNWSLEDTGALLSSGQKDYVTVQLQNGEIWELSRCSRNKRENTSSLGYEYTGSKKEFPCVDGYIYDQNTWKSTAVTQWNLVCDRKWLAMLIQPLFMFGVLLGSVTFGYFSDRLGRRVVLWATSSSMFLFGIAAAFAVDYYTFMAARFFLAMVASGYLVVGFVYVMEFIGMKSRTWASVHLHSFFAVGTLLVALTGYLVRTWWLYQMILSTVTVPFILCCWVLPETPFWLLSEGRYEEAQKIVDIMAKWNRASSCKLSELLSLDLQGPVSNSPTEVQKHNLSYLFYNWSITKRTLTVWLIWFTGSLGFYSFSLNSVNLGGNEYLNLFLLGVVEIPAYTFVCIAMDKVGRRTVLAYSLFCSALACGVVMVIPQKHYILGVVTAMVGKFAIGAAFGLIYLYTAELYPTIVRSLAVGSGSMVCRLASILAPFSVDLSSIWIFIPQLFVGTMALLSGVLTLKLPETLGKRLATTWEEAAKLESENESKSSKLLLTTNNSGLEKTEAITPRDSGLGE
  binding: binds

No constants are given. Whether binding was seen depends on the method and setting. In cells and extracts the contact can be indirect. Binding calls can cover weak binding; strength is not graded here.
